Results are given in words; binding and its absence hold for the method and conditions named. Some entries that bind do so weakly or less than the wild type.
Molecular target: αB-crystallin wild type (unlabeled) (UniProt P02511)
Test: native MS; samples at 20 μM electrosprayed, modified quadrupole-TOF; spectra fit with UniDec, oligomer mass list of 5 to 50 subunits; both purified

B1: αB-crystallin wild type (unlabeled) (protein, UniProt P02511 1-175)
chain: MDIAIHHPWIRRPFFPFHSPSRLFDQFFGEHLLESDLFPTSTSLSPFYLRPPSFLRAPSWFDTGLSEMRLEKDRFSVNLDVKHFSPEELKVKVLGDVIEVHGKHEERQDEHGFISREFHRKYRIPADVDPLTITSSLSSDGVLTVNGPRKQVSGPERTIPITREEKPAVTAAPKK
B1 was tested, and the binding was “binds”.

Source: publication PMC8463877
